These are yes or no findings as the source states them, for the method shown. In cells and extracts the contact can be indirect. A yes stands for co-enrichment or nearness to the bait. Other partners may have been found.
Columns and labels:
[1] = target: flag-tagged full-length INTS10 (UniProt Q9NVR2); experiment: affinity purification with mass spectrometry
[2] = target: flag-tagged full-length INTS15 (UniProt Q96N11); experiment: affinity purification with mass spectrometry

Chains of the proteins cited; added tags and fusions are not shown.
UniProt Q9NVR2: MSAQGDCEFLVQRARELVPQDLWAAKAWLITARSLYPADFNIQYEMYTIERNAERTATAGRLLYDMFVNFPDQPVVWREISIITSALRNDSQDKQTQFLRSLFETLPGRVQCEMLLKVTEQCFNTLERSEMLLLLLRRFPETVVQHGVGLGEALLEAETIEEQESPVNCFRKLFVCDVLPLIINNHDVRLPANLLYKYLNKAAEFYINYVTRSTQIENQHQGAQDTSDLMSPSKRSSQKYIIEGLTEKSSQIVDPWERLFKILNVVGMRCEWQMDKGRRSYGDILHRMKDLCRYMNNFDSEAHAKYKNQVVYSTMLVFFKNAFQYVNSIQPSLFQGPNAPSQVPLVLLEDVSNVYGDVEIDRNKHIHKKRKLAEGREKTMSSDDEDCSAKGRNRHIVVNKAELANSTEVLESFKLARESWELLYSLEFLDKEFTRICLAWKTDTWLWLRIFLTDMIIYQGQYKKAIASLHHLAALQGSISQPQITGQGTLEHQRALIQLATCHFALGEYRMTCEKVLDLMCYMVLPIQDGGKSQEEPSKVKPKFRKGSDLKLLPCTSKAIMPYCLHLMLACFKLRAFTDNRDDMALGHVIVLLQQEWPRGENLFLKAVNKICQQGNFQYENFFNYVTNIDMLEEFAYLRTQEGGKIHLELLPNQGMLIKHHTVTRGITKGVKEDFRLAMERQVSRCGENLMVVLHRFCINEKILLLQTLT
UniProt Q96N11: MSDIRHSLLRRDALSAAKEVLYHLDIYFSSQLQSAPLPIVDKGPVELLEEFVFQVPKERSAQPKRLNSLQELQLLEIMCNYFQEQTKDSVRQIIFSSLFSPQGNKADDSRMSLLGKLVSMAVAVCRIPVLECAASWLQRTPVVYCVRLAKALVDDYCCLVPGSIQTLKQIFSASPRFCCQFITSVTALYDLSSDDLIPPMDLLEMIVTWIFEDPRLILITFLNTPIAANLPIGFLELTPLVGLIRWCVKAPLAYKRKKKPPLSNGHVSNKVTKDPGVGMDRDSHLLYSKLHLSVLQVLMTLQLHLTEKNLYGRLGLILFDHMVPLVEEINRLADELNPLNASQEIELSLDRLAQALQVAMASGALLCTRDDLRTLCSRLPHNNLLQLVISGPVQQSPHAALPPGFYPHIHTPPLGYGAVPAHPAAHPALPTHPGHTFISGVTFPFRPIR
UniProt Q96SY0: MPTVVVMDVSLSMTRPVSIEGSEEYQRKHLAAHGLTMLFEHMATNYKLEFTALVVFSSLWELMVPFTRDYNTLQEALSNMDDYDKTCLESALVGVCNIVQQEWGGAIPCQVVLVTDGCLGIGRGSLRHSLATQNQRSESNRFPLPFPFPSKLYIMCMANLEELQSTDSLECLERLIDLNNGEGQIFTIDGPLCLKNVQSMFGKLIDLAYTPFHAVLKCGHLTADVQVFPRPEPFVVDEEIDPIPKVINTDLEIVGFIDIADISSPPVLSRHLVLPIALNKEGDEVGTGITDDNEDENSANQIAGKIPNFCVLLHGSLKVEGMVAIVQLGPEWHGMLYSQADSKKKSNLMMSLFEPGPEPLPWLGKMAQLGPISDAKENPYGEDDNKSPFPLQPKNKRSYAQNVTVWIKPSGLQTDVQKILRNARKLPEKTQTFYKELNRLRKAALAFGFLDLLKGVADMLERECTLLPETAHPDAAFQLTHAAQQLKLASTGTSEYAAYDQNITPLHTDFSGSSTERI
UniProt Q9NVM9: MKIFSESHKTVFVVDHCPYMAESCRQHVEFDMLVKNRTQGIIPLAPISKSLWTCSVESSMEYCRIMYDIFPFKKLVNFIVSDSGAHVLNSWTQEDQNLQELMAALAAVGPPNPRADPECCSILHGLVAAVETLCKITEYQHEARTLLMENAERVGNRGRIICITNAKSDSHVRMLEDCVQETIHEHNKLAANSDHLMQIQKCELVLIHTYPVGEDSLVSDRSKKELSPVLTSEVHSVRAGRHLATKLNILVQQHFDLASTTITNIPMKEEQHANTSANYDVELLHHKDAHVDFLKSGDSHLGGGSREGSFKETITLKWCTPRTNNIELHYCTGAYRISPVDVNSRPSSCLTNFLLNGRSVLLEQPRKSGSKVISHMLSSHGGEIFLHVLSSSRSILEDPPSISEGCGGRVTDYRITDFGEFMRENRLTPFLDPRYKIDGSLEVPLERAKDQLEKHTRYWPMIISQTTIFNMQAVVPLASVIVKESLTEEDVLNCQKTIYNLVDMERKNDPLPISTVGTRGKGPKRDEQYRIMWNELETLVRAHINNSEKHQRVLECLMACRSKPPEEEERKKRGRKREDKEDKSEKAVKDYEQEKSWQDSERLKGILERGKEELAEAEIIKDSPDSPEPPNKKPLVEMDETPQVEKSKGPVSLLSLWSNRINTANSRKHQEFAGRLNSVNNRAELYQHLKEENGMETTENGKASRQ

binding [1]	binding [2]	Substance
binds		INTS15 (endogenous, 293T) (from UniProt Q96N11 1-449)
	binds	INTS14 (endogenous, 293T) (from UniProt Q96SY0 1-518)
	binds	INTS10 (endogenous, 293T) (from UniProt Q9NVR2 1-710)
binds	binds	INTS13 (endogenous, 293T) (from UniProt Q9NVM9 1-706)
